# Test results: the supplement of paper PMC8728848
# The other results are listed elsewhere or left out.
# What was measured:
# Test in all cases: glycan array binding signal (z-score within array); higher = stronger binding
# Settings in all cases: glycan notation: IUPAC condensed, linker removed
# GlcNAc(b1-3)Gal(b1-4)Glc = biological target: GlcNAc(b1-3)Gal(b1-4)Glc
# Summary of the method: (§1)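 The Consortium for Functional Glycomics database supplied 3228 glycan arrays, of which those lacking an available protein sequence were dropped. The binding signal, a within-array Z-score, was averaged across arrays of the same protein sequence and across linkers. Negative scores can be read as non-binding.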
# [1] = biological target: GlcNAc(b1-3)Gal(b1-4)GlcNAc
# Summary of the method: as §1
# [2] = biological target: GlcNAc(b1-3)Gal(b1-4)GlcNAc(b1-2)Man(a1-3)[GlcNAc(b1-3)Gal(b1-4)GlcNAc(b1-2)Man(a1-6)]Man(b1-4)GlcNAc(b1-4)GlcNAc
# Summary of the method: as §1
# [3] = biological target: GlcNAc(b1-3)Gal(b1-4)GlcNAc(b1-2)Man(a1-3)[GlcNAc(b1-3)Gal(b1-4)GlcNAc(b1-2)Man(a1-6)]Man(b1-4)GlcNAc(b1-4)[Fuc(a1-6)]GlcNAc
# Summary of the method: as §1
# [4] = biological target: GlcNAc(b1-3)Gal(b1-4)GlcNAc(b1-2)[GlcNAc(b1-3)Gal(b1-4)GlcNAc(b1-6)]Man(a1-6)[GlcNAc(b1-3)Gal(b1-4)GlcNAc(b1-2)Man(a1-3)]Man(b1-4)GlcNAc(b1-4)GlcNAc
# Summary of the method: as §1
# [5] = biological target: GlcNAc(b1-3)Gal(b1-4)GlcNAc(b1-3)Gal(b1-4)GlcNAc
# Summary of the method: as §1
# [6] = biological target: GlcNAc(b1-3)Gal(b1-4)GlcNAc(b1-3)Gal(b1-4)GlcNAc(b1-2)Man(a1-3)[GlcNAc(b1-3)Gal(b1-4)GlcNAc(b1-3)Gal(b1-4)GlcNAc(b1-2)Man(a1-6)]Man(b1-4)GlcNAc(b1-4)GlcNAc
# Summary of the method: as §1
# [7] = biological target: GlcNAc(b1-3)Gal(b1-4)GlcNAc(b1-3)Gal(b1-4)GlcNAc(b1-2)Man(a1-3)[GlcNAc(b1-3)Gal(b1-4)GlcNAc(b1-3)Gal(b1-4)GlcNAc(b1-2)Man(a1-6)]Man(b1-4)GlcNAc(b1-4)[Fuc(a1-6)]GlcNAc
# Summary of the method: as §1
# [8] = biological target: GlcNAc(b1-3)Gal(b1-4)GlcNAc(b1-3)Gal(b1-4)GlcNAc(b1-2)[GlcNAc(b1-3)Gal(b1-4)GlcNAc(b1-3)Gal(b1-4)GlcNAc(b1-6)]Man(a1-6)[GlcNAc(b1-3)Gal(b1-4)GlcNAc(b1-3)Gal(b1-4)GlcNAc(b1-2)Man(a1-3)]Man(b1-4)GlcNAc(b1-4)[Fuc(a1-6)]GlcNAc
# Summary of the method: as §1
# [9] = biological target: GlcNAc(b1-3)Gal(b1-4)GlcNAc(b1-3)Gal(b1-4)GlcNAc(b1-3)Gal(b1-4)GlcNAc(b1-2)Man(a1-3)[GlcNAc(b1-3)Gal(b1-4)GlcNAc(b1-3)Gal(b1-4)GlcNAc(b1-3)Gal(b1-4)GlcNAc(b1-2)Man(a1-6)]Man(b1-4)GlcNAc(b1-4)GlcNAc
# Summary of the method: as §1
# [10] = biological target: GlcNAc(b1-3)Gal(b1-4)GlcNAc(b1-3)Gal(b1-4)GlcNAc(b1-3)Gal(b1-4)GlcNAc(b1-2)Man(a1-3)[GlcNAc(b1-3)Gal(b1-4)GlcNAc(b1-3)Gal(b1-4)GlcNAc(b1-3)Gal(b1-4)GlcNAc(b1-2)Man(a1-6)]Man(b1-4)GlcNAc(b1-4)[Fuc(a1-6)]GlcNAc
# Summary of the method: as §1
# [11] = biological target: GlcNAc(b1-3)Gal(b1-4)GlcNAc(b1-3)Gal(b1-4)GlcNAc(b1-3)Gal(b1-4)GlcNAc(b1-2)[GlcNAc(b1-3)Gal(b1-4)GlcNAc(b1-3)Gal(b1-4)GlcNAc(b1-3)Gal(b1-4)GlcNAc(b1-6)]Man(a1-6)[GlcNAc(b1-3)Gal(b1-4)GlcNAc(b1-3)Gal(b1-4)GlcNAc(b1-3)Gal(b1-4)GlcNAc(b1-2)Man(a1-3)]Man(b1-4)GlcNAc(b1-4)[Fuc(a1-6)]GlcNAc
# Summary of the method: as §1
# [12] = biological target: GlcNAc(b1-3)Gal(b1-4)GlcNAc(b1-3)Gal(b1-4)GlcNAc(b1-3)Gal(b1-4)GlcNAc(b1-3)Gal(b1-4)GlcNAc(b1-2)Man(a1-3)[GlcNAc(b1-3)Gal(b1-4)GlcNAc(b1-3)Gal(b1-4)GlcNAc(b1-3)Gal(b1-4)GlcNAc(b1-3)Gal(b1-4)GlcNAc(b1-2)Man(a1-6)]Man(b1-4)GlcNAc(b1-4)GlcNAc
# Summary of the method: as §1
# [13] = biological target: GlcNAc(b1-3)Gal(b1-4)GlcNAc(b1-3)Gal(b1-4)GlcNAc(b1-3)Gal(b1-4)GlcNAc(b1-3)Gal(b1-4)GlcNAc(b1-2)Man(a1-3)[GlcNAc(b1-3)Gal(b1-4)GlcNAc(b1-3)Gal(b1-4)GlcNAc(b1-3)Gal(b1-4)GlcNAc(b1-3)Gal(b1-4)GlcNAc(b1-2)Man(a1-6)]Man(b1-4)GlcNAc(b1-4)[Fuc(a1-6)]GlcNAc
# Summary of the method: as §1
# [14] = biological target: GlcNAc(b1-3)Gal(b1-4)GlcNAc(b1-3)Gal(b1-4)GlcNAc(b1-3)Gal(b1-4)GlcNAc(b1-3)Gal(b1-4)GlcNAc(b1-2)[GlcNAc(b1-3)Gal(b1-4)GlcNAc(b1-3)Gal(b1-4)GlcNAc(b1-3)Gal(b1-4)GlcNAc(b1-3)Gal(b1-4)GlcNAc(b1-6)]Man(a1-6)[GlcNAc(b1-3)Gal(b1-4)GlcNAc(b1-3)Gal(b1-4)GlcNAc(b1-3)Gal(b1-4)GlcNAc(b1-3)Gal(b1-4)GlcNAc(b1-2)Man(a1-3)]Man(b1-4)GlcNAc(b1-4)[Fuc(a1-6)]GlcNAc
# Summary of the method: as §1
# [15] = biological target: GlcNAc(b1-3)Gal(b1-4)GlcNAc(b1-3)Gal(b1-4)GlcNAc(b1-3)GalNAc
# Summary of the method: as §1
# [16] = biological target: GlcNAc(b1-3)Gal(b1-4)GlcNAc(b1-3)GalNAc
# Summary of the method: as §1
# [17] = biological target: GlcNAc(b1-3)Gal(b1-4)GlcNAc(b1-3)[GlcNAc(b1-3)Gal(b1-4)GlcNAc(b1-3)]GalNAc
# Summary of the method: as §1
# [18] = biological target: GlcNAc(b1-3)Gal(b1-4)GlcNAc(b1-6)[Gal(b1-3)]GalNAc
# Summary of the method: as §1
# [19] = biological target: GlcNAc(b1-3)Gal(b1-4)GlcNAc(b1-6)[GlcNAc(b1-3)Gal(b1-3)]GalNAc
# Summary of the method: as §1
# [20] = biological target: GlcNAc(b1-3)Gal(b1-4)GlcNAc(b1-6)[GlcNAc(b1-3)]Gal(b1-4)GlcNAc
# Summary of the method: as §1
# GlcNAc(b1-3)GalNAc = biological target: GlcNAc(b1-3)GalNAc
# Summary of the method: as §1
# GlcNAc(b1-3)Man = biological target: GlcNAc(b1-3)Man
# Summary of the method: as §1
# [21] = biological target: GlcNAc(b1-3)[GlcNAc(b1-4)][GlcNAc(b1-6)]GlcNAc
# Summary of the method: as §1
# [22] = biological target: GlcNAc(b1-3)[GlcNAc(b1-6)]Gal(b1-4)GlcNAc
# Summary of the method: as §1
# [23] = biological target: GlcNAc(b1-3)[GlcNAc(b1-6)]GalNAc
# Summary of the method: as §1
# [24] = biological target: GlcNAc(b1-4)Gal(b1-4)GlcNAc
# Summary of the method: as §1
# GlcNAc(b1-4)GlcNAc = biological target: GlcNAc(b1-4)GlcNAc
# Summary of the method: as §1
# [25] = biological target: GlcNAc(b1-4)GlcNAc(b1-4)GlcNAc
# Summary of the method: as §1
# [26] = biological target: GlcNAc(b1-4)GlcNAc(b1-4)GlcNAc(b1-4)GlcNAc(b1-4)GlcNAc
# Summary of the method: as §1
# [27] = biological target: GlcNAc(b1-4)GlcNAc(b1-4)GlcNAc(b1-4)GlcNAc(b1-4)GlcNAc(b1-4)GlcNAc
# Summary of the method: as §1
# [28] = biological target: GlcNAc(b1-4)[GlcNAc(b1-6)]GalNAc
# Summary of the method: as §1
# [29] = biological target: GlcNAc(b1-6)Gal(b1-4)GlcNAc
# Summary of the method: as §1
# GlcNAc(b1-6)GalNAc = biological target: GlcNAc(b1-6)GalNAc
# Summary of the method: as §1
# [30] = biological target: GlcNAc6S(b1-3)Gal(b1-4)GlcNAc
# Summary of the method: as §1
# Kdn(a2-3)Gal(b1-3)GalNAc = biological target: Kdn(a2-3)Gal(b1-3)GalNAc
# Summary of the method: as §1
# Kdn(a2-3)Gal(b1-3)GlcNAc = biological target: Kdn(a2-3)Gal(b1-3)GlcNAc
# Summary of the method: as §1
# Kdn(a2-3)Gal(b1-4)Glc = biological target: Kdn(a2-3)Gal(b1-4)Glc
# Summary of the method: as §1
# Kdn(a2-3)Gal(b1-4)GlcNAc = biological target: Kdn(a2-3)Gal(b1-4)GlcNAc
# Summary of the method: as §1
# [31] = biological target: Kdn(a2-3)Gal(b1-4)[Fuc(a1-3)]GlcNAc
# Summary of the method: as §1
# Kdn(a2-6)Gal(b1-4)GlcNAc = biological target: Kdn(a2-6)Gal(b1-4)GlcNAc
# Summary of the method: as §1
# [32] = biological target: Man(a1-2)Man(a1-2)Man(a1-3)Man
# Summary of the method: as §1
# [33] = biological target: Man(a1-2)Man(a1-2)Man(a1-6)[Man(a1-3)]Man
# Summary of the method: as §1
# Man(a1-2)Man(a1-3)Man = biological target: Man(a1-2)Man(a1-3)Man
# Summary of the method: as §1
# [34] = biological target: Man(a1-2)Man(a1-3)[Man(a1-2)Man(a1-6)]Man
# Summary of the method: as §1
binder,measurement,setting,value
Lb MiSSP8 (Laccaria bicolor) (protein) MYFHTLFACATLMLITTAHASPTVINSLDSRKADLNGDVEARHAADWRRDSDWRRDSDWRRDSDWRRDSD,glycan array binding signal (z-score),GlcNAc(b1-3)Gal(b1-4)Glc,-0.136
same,glycan array binding signal (z-score),[1],-1.03
same,glycan array binding signal (z-score),[2],0.257
same,glycan array binding signal (z-score),[3],2.31
same,glycan array binding signal (z-score),[4],0.54
same,glycan array binding signal (z-score),[5],-0.827
same,glycan array binding signal (z-score),[6],2.57
same,glycan array binding signal (z-score),[7],2.43
same,glycan array binding signal (z-score),[8],1.4
same,glycan array binding signal (z-score),[9],2.07
same,glycan array binding signal (z-score),[10],2.57
same,glycan array binding signal (z-score),[11],1.56
same,glycan array binding signal (z-score),[12],0.25
same,glycan array binding signal (z-score),[13],0.409
same,glycan array binding signal (z-score),[14],0.119
same,glycan array binding signal (z-score),[15],-0.771
same,glycan array binding signal (z-score),[16],-0.405
same,glycan array binding signal (z-score),[17],0.105
same,glycan array binding signal (z-score),[18],-0.668
same,glycan array binding signal (z-score),[19],0.078
same,glycan array binding signal (z-score),[20],-0.937
same,glycan array binding signal (z-score),GlcNAc(b1-3)GalNAc,-0.606
same,glycan array binding signal (z-score),GlcNAc(b1-3)Man,0.416
same,glycan array binding signal (z-score),[21],-0.35
same,glycan array binding signal (z-score),[22],-1.04
same,glycan array binding signal (z-score),[23],-0.668
same,glycan array binding signal (z-score),[24],1.29
same,glycan array binding signal (z-score),GlcNAc(b1-4)GlcNAc,0.385
same,glycan array binding signal (z-score),[25],0.319
same,glycan array binding signal (z-score),[26],1.1
same,glycan array binding signal (z-score),[27],-0.343
same,glycan array binding signal (z-score),[28],-0.702
same,glycan array binding signal (z-score),[29],-0.157
same,glycan array binding signal (z-score),GlcNAc(b1-6)GalNAc,0.696
same,glycan array binding signal (z-score),[30],0.547
same,glycan array binding signal (z-score),Kdn(a2-3)Gal(b1-3)GalNAc,1.02
same,glycan array binding signal (z-score),Kdn(a2-3)Gal(b1-3)GlcNAc,-0.509
same,glycan array binding signal (z-score),Kdn(a2-3)Gal(b1-4)Glc,-0.254
same,glycan array binding signal (z-score),Kdn(a2-3)Gal(b1-4)GlcNAc,-0.985
same,glycan array binding signal (z-score),[31],-0.226
same,glycan array binding signal (z-score),Kdn(a2-6)Gal(b1-4)GlcNAc,-0.122
same,glycan array binding signal (z-score),[32],-0.336
same,glycan array binding signal (z-score),[33],-0.033
same,glycan array binding signal (z-score),Man(a1-2)Man(a1-3)Man,-0.709
same,glycan array binding signal (z-score),[34],-1.06

# Part of the list above, with bars between the fields.
binder | measurement | setting | value
Lb MiSSP8 (Laccaria bicolor) (protein) MYFHTLFACATLMLITTAHASPTVINSLDSRKADLNGDVEARHAADWRRDSDWRRDSDWRRDSDWRRDSD | glycan array binding signal (z-score) | [19] | 0.078
same | glycan array binding signal (z-score) | [21] | -0.35
